Laboratory results published in PubChem BioAssay AID588590 (National Center for Advancing Translational Sciences (NCATS), 2011).
About 4,000 (1%) of roughly 390,000 compounds were called active. The shares of active, inactive and inconclusive entries below differ from those in the screen. Calls follow the shape of the dose curve; as a rule, active = well fitted inhibition curve with a large enough effect; inconclusive = small, poorly fitted or top-dose-only effect, or another doubt; inactive = no such curve, though single readings can be large or run the other way. A potency beside an inconclusive call is a rough fit, not a confirmed value.

Chains of the proteins cited; added tags and fusions are not shown. Lines headed by an entry give the natural chain unless they say otherwise; changes in a name come on top.
UniProt Q9UNA4: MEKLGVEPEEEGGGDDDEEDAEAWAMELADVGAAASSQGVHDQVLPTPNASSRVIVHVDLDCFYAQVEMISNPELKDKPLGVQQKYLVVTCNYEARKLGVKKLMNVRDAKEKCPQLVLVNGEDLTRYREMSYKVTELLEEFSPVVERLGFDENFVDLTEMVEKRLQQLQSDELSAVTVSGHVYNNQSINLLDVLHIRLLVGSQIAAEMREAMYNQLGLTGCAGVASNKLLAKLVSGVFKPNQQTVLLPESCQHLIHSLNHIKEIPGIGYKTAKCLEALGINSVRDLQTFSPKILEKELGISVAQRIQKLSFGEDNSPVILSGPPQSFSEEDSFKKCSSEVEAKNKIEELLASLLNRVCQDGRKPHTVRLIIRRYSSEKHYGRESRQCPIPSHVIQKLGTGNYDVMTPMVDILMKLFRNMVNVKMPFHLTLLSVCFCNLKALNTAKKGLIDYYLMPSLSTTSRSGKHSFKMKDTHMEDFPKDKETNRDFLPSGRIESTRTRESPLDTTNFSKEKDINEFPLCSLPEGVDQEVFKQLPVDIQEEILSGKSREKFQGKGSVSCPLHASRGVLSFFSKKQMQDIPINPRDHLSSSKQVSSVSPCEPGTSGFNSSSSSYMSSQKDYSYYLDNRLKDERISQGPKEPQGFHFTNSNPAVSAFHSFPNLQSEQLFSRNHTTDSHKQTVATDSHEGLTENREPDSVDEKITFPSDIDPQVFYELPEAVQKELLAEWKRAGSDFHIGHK

molecular target: DNA polymerase iota (Homo sapiens) (UniProt Q9UNA4); experiment: qHTS for Inhibitors of Polymerase Iota; settings: Pol iota fluorescent replication assay, 10 min; series mostly up to 115 µM; activity, negative = inhibition: at the top concentration
How it was run: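 Fluorescent replication assay read twice, at 0 min and 10 min after adding 50 nM (final) substrate. Enzyme (10 nM) and compounds were first incubated 15 min at room temperature; enzyme-free buffer wells were negative controls.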
Potency is read from the fitted curve at half-maximal effect.

SMILES | activity, negative = inhibition | Potency
O=C(Cn1c(=O)oc2cc(S(=O)(=O)NCc3ccccc3)ccc21)NCc1ccc(F)cc1 | inactive: 21.8% | 
COC(=O)[C@]1(CC(C)C)N[C@H](c2ccc(-c3ccc(F)cc3)c(OC)c2)[C@@H]2C(=O)N(C)C(=O)[C@@H]21 |  | inconclusive: 28.2 µM [inhibitor, partial curve, poor fit]
COc1ccc(OC)c(NC(=O)Cn2cc(C(=O)c3cccs3)c3ccccc32)c1 | inactive: 13.7% | 
CCOc1cc(C(=O)Nc2ccc(C(=O)NCCN(CC)CC)cc2)ccc1OCC(=O)N1CCOCC1 |  | inconclusive: 79.4 µM [inhibitor, partial curve, poor fit]
CCOc1ccc2oc(=O)cc(CN3CCN(C(=O)c4ccc(Cl)cc4)CC3)c2c1 |  | inconclusive: 89.1 µM [inhibitor, single point]
COc1cc(-c2nc3ccccn3c2/N=C/c2ccccc2)ccc1O |  | inconclusive: 100 µM [inhibitor, partial curve, poor fit]
Cc1ccc(C)c(NC(=O)CCN2CCN(c3ccccc3F)CC2)c1 |  | inconclusive: 2 µM [inhibitor, partial curve, poor fit]
O=C(CCN1C(=O)/C(=C/c2ccco2)SC1=S)Nc1ccc(C(=O)O)c(O)c1 |  | active: 3.98 µM
Cc1ccccc1NC(=S)NC1CC2CCC(C1)N2Cc1ccco1 (stereo not given) |  | inconclusive: 3.98 µM [inhibitor, full curve, poor fit]
Cc1ccccc1NC(=O)c1ccccc1NC(=O)c1ccccc1F |  | inactive
CC(C)Oc1ccc(C(=O)N(Cc2ccco2)C2CCS(=O)(=O)C2)cc1 (stereo not given) |  | inconclusive: 89.1 µM [inhibitor, single point]
O=C(CCCc1nc2ccccc2s1)N1CCN(S(=O)(=O)c2cccs2)CC1 |  | inconclusive: 15.8 µM [inhibitor, partial curve, poor fit]
O=C(Nc1nnc(S(=O)(=O)N2CCCC2)s1)c1ccccc1Cl |  | inconclusive: 39.8 µM [inhibitor, single point]
Cc1ccc(Sc2ccc(/C=N/O)cc2[N+](=O)[O-])cc1 |  | inconclusive: 89.1 µM [inhibitor, partial curve, poor fit]
CC1CCCCC1NCC(=O)Nc1ccccc1-c1ccccc1 (stereo not given) |  | inconclusive: 12.6 µM [inhibitor, single point]
CCCCN(CCC#N)c1ccc(/C=C/c2ccnc3ccccc23)cc1 | inactive: -20.5% | 
CC1(C)CC[C@]2(C(=O)n3ccnc3)CC[C@]3(C)[C@H](C(=O)C=C4[C@@]5(C)C=C(C#N)C(=O)C(C)(C)[C@@H]5CC[C@]43C)[C@@H]2C1 |  | active: 14.1 µM
CCN(C(=O)COC(=O)CSc1ccc([N+](=O)[O-])cc1)C1CCS(=O)(=O)C1 (stereo not given) |  | inconclusive: 31.6 µM [inhibitor, partial curve, poor fit]
N=c1n(CCN2CCCC2)c2ccccc2n1CC(O)c1ccc(Cl)c(Cl)c1 (stereo not given) |  | inconclusive: 39.8 µM [inhibitor, single point]
COc1ccc(-c2cnc(NCc3ccc(C)cc3)n2C)cc1 |  | inconclusive: 11.2 µM [inhibitor, full curve, poor fit]

Shown as a markdown table: 19 of the compounds above

| SMILES | activity, negative = inhibition | Potency |
| --- | --- | --- |
| O=C(Cn1c(=O)oc2cc(S(=O)(=O)NCc3ccccc3)ccc21)NCc1ccc(F)cc1 | inactive: 21.8% |  |
| COC(=O)[C@]1(CC(C)C)N[C@H](c2ccc(-c3ccc(F)cc3)c(OC)c2)[C@@H]2C(=O)N(C)C(=O)[C@@H]21 |  | inconclusive: 28.2 µM [inhibitor, partial curve, poor fit] |
| COc1ccc(OC)c(NC(=O)Cn2cc(C(=O)c3cccs3)c3ccccc32)c1 | inactive: 13.7% |  |
| CCOc1cc(C(=O)Nc2ccc(C(=O)NCCN(CC)CC)cc2)ccc1OCC(=O)N1CCOCC1 |  | inconclusive: 79.4 µM [inhibitor, partial curve, poor fit] |
| CCOc1ccc2oc(=O)cc(CN3CCN(C(=O)c4ccc(Cl)cc4)CC3)c2c1 |  | inconclusive: 89.1 µM [inhibitor, single point] |
| COc1cc(-c2nc3ccccn3c2/N=C/c2ccccc2)ccc1O |  | inconclusive: 100 µM [inhibitor, partial curve, poor fit] |
| Cc1ccc(C)c(NC(=O)CCN2CCN(c3ccccc3F)CC2)c1 |  | inconclusive: 2 µM [inhibitor, partial curve, poor fit] |
| O=C(CCN1C(=O)/C(=C/c2ccco2)SC1=S)Nc1ccc(C(=O)O)c(O)c1 |  | active: 3.98 µM |
| Cc1ccccc1NC(=S)NC1CC2CCC(C1)N2Cc1ccco1 (stereo not given) |  | inconclusive: 3.98 µM [inhibitor, full curve, poor fit] |
| Cc1ccccc1NC(=O)c1ccccc1NC(=O)c1ccccc1F |  | inactive |
| CC(C)Oc1ccc(C(=O)N(Cc2ccco2)C2CCS(=O)(=O)C2)cc1 (stereo not given) |  | inconclusive: 89.1 µM [inhibitor, single point] |
| O=C(CCCc1nc2ccccc2s1)N1CCN(S(=O)(=O)c2cccs2)CC1 |  | inconclusive: 15.8 µM [inhibitor, partial curve, poor fit] |
| O=C(Nc1nnc(S(=O)(=O)N2CCCC2)s1)c1ccccc1Cl |  | inconclusive: 39.8 µM [inhibitor, single point] |
| Cc1ccc(Sc2ccc(/C=N/O)cc2[N+](=O)[O-])cc1 |  | inconclusive: 89.1 µM [inhibitor, partial curve, poor fit] |
| CC1CCCCC1NCC(=O)Nc1ccccc1-c1ccccc1 (stereo not given) |  | inconclusive: 12.6 µM [inhibitor, single point] |
| CCCCN(CCC#N)c1ccc(/C=C/c2ccnc3ccccc23)cc1 | inactive: -20.5% |  |
| CC1(C)CC[C@]2(C(=O)n3ccnc3)CC[C@]3(C)[C@H](C(=O)C=C4[C@@]5(C)C=C(C#N)C(=O)C(C)(C)[C@@H]5CC[C@]43C)[C@@H]2C1 |  | active: 14.1 µM |
| CCN(C(=O)COC(=O)CSc1ccc([N+](=O)[O-])cc1)C1CCS(=O)(=O)C1 (stereo not given) |  | inconclusive: 31.6 µM [inhibitor, partial curve, poor fit] |
| N=c1n(CCN2CCCC2)c2ccccc2n1CC(O)c1ccc(Cl)c(Cl)c1 (stereo not given) |  | inconclusive: 39.8 µM [inhibitor, single point] |

Next part.

SMILES | activity, negative = inhibition | Potency
CCC1=C2CC[C@H]3C(=O)N(CC(=O)OC)C(=O)[C@H]3[C@H]2[C@@]2(C)C(=NCC(=O)OC)OC(=O)N2C1=O |  | inconclusive: 89.1 µM [inhibitor, partial curve]
CCC(C)NC(=O)c1sc2nc(C)c(C(=O)Nc3ccc(C)cc3C)c(-c3ccc(Br)cc3)c2c1N (stereo not given) |  | inconclusive: 70.8 µM [inhibitor, partial curve]
OC(C[n+]1ccccc1)c1ccccc1 (stereo not given) | inactive: -8.09% | 
Cc1cc(C)c(C)c(S(=O)(=O)N2CCC(C(=O)Nc3ccccc3N3CCOCC3)CC2)c1C |  | inconclusive: 89.1 µM [inhibitor, partial curve]
Cc1ccc(-n2ccnc(SCC(=O)NCCc3ccccc3)c2=O)cc1F |  | inconclusive: 20 µM [inhibitor, single point]
CCOC(=O)c1oc2ccccc2c1NC(=O)CCl |  | inconclusive: 7.94 µM [inhibitor, full curve, poor fit]
Cc1ccc(NC(=O)c2cccc(S(C)(=O)=O)c2)cc1 |  | inconclusive: 100 µM [inhibitor, single point]
CCOC(=O)N1CCC(N2CCN(c3cc(C)ccc3C)CC2)CC1 |  | inconclusive: 44.7 µM [inhibitor, partial curve]
Cc1ccc(NC(=O)c2ccc3c(c2)S(=O)(=O)c2ccccc2C3=O)cc1S(=O)(=O)N1CCOCC1 |  | inconclusive: 89.1 µM [inhibitor, single point]
Cc1cc(NC(=O)c2ccc(Cl)c(Cl)c2)ccc1-c1cc2ccccc2oc1=O |  | inconclusive: 100 µM [inhibitor, single point]
CCOC(=O)c1c(C)[nH]c(C)c1S(=O)(=O)N(C)CC(=O)Nc1cc(Cl)ccc1OC | inactive: -13.9% | 
CCSc1oc(-c2ccccc2)nc1S(=O)(=O)c1ccccc1 |  | inconclusive: 56.2 µM [inhibitor, partial curve, poor fit]
Cc1ccc(S(=O)(=O)Cc2ccc(C(=O)N3CCN(c4cc(C)ccc4C)CC3)o2)cc1 |  | inconclusive: 25.1 µM [inhibitor, partial curve, poor fit]
COc1ccc(-c2coc3cc(OC(C)=O)ccc3c2=S)cc1 |  | inconclusive: 25.1 µM [inhibitor, single point]
COc1cc2c(ccc3cc(OC)c(OC)c(O)c32)cc1O |  | inconclusive: 10 µM [inhibitor, full curve, poor fit]
CCCCC1(C)NC(=S)N2N1C(=S)NC2(C)CCCC (stereo not given) |  | inconclusive: 25.1 µM [inhibitor, partial curve, poor fit]
COc1cc2c(cc1OC)C(C)N(C(=O)c1cc3c(s1)-c1c(C)cccc1OC3)CC2 (stereo not given) |  | inconclusive: 100 µM [inhibitor, single point]
CC(C)NC(=O)c1cnc2sc(N3CCCCCC3)nn2c1=O | inactive: 46.1% | 
CC1(C)CC(=O)C2=C(C1)NC(Nc1nc3ccccc3o1)=NC2c1ccccn1 (stereo not given) | inactive: 53.4% | 
Cc1ccccc1NC(=O)c1ccc(C)c(S(=O)(=O)NCc2cccnc2)c1 |  | inconclusive: 100 µM [inhibitor, single point]

SMILES | activity, negative = inhibition | Potency
NS(=O)(=O)c1ccc(CCNC(=O)c2ccc(C(=O)c3ccccc3)cc2)cc1 |  | inconclusive: 89.1 µM [inhibitor, single point]
Cc1cc(NC2C3CC4CC(C3)CC2C4)n2ncnc2n1 (stereo not given) |  | inconclusive: 89.1 µM [inhibitor, single point]
COc1ccc(Cl)cc1C(=O)NNC(=S)NC(=O)c1ccc(F)c(F)c1 |  | inconclusive: 89.1 µM [inhibitor, single point]
CSCCC1NC2(C(=O)Nc3ccc(Cl)cc32)[C@@H]2C(=O)N(C3CCCC3)C(=O)[C@H]12 (stereo not given in full) |  | inconclusive: 11.2 µM [inhibitor, partial curve]
Cc1ccc(CNC(=O)[C@H](C)[C@H]2C[C@]2(C)[C@H](NC(=O)OCc2ccccc2)c2ccccc2)o1 |  | inconclusive: 11.2 µM [inhibitor, partial curve, poor fit]
CCOc1ccc2c(c1)nc(SCC(=O)c1ccc(Br)s1)n2C |  | inconclusive: 15.8 µM [inhibitor, full curve]
Cn1c(N)c(C(=O)COC(=O)c2cc(S(=O)(=O)NCc3ccccc3)ccc2O)c(=O)n(C)c1=O |  | inconclusive: 50.1 µM [inhibitor, partial curve]
COc1ccc(N2CCN(C(=O)c3cc4c(=O)n(Cc5cccs5)ccc4nc3C)CC2)cc1 | inactive: 1.17% | 
CCOC(=O)[C@H]1[C@H]2COc3ccc(Br)cc3[C@H]2N2C(=O)CN(CCc3c[nH]c4ccccc34)C(=O)[C@@]12C |  | inconclusive: 2.82 µM [inhibitor, full curve, poor fit]
Cc1cc(Cl)ccc1NC(=O)C1CCN(S(=O)(=O)c2ccc3[nH]c(=O)ccc3c2)CC1 | inactive: 11.5% | 
O=C(O)c1cccc(-n2cccc2/C=C/[N+](=O)[O-])c1 |  | inconclusive: 3.16 µM [inhibitor, full curve, poor fit]
O=C(O)/C=C\C(=O)Nc1ccccc1C(=O)N1CCC(O)(c2ccc(Cl)cc2)CC1 |  | inconclusive: 50.1 µM [inhibitor, partial curve, poor fit]
O=S(=O)(Nc1nc2ccccc2nc1-[n+]1cccc(N=C([O-])c2ccc(Cl)cc2)c1)c1ccccc1 |  | inconclusive: 79.4 µM [inhibitor, single point]
Cc1ccc(OC(=O)c2ccc(Cl)c([N+](=O)[O-])c2)cn1 |  | inconclusive: 89.1 µM [inhibitor, single point]
COc1ccc(S(=O)(=O)N(CC(=O)O)c2ccccc2)cc1 |  | active: 100 µM
CSCC[C@@H](C(=O)O)N1Cc2ccccc2C1=O |  | inconclusive: 2 µM [inhibitor, partial curve, poor fit]
O=C(CCOc1ccccc1)N(Cc1cccnc1)c1nc2c(Cl)cccc2s1 |  | inconclusive: 15.8 µM [inhibitor, partial curve, poor fit]
COC(=O)C1=C(CSc2nc3c(cc2C#N)CN(C)CC3)OC(N)=C(C#N)C1c1ccccc1F (stereo not given) |  | inconclusive: 12.6 µM [inhibitor, full curve, poor fit]
N#Cc1nc(-c2ccco2)oc1NCc1cccnc1 |  | inconclusive: 112 µM [inhibitor, partial curve, poor fit]
S=c1[nH]nc(-c2ccncc2)n1/N=C/c1ccccc1 | inactive: 5.35% | 
